# Experimental data taken from paper PMC5996148.
# By UniProt entry, the sequences of proteins in these tests, tags left out. Where a name states a change or a piece, a line headed by the entry shows the natural chain unless it says otherwise.
# UniProt Q9H0R8: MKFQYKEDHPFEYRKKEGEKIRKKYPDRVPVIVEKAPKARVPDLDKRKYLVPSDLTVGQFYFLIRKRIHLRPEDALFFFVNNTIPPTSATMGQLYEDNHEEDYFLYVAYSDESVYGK
# The other results are listed elsewhere or left out. For some of these results: The exact form of the protein is not confirmed.
# Assays:
# Assay in all cases: protein microarray (ProtoArray v5.0), streptavidin-Alexa Fluor 647
# Settings in all cases: 3'-biotin; 20 mM Tris (pH 7.5), 5 mM MgCl2, 100 mM KCl, 0.1% Tween-20, A/T-rich and random oligonucleotide blockers; temperature not stated; high values mean tight binding
# [1] = test system: Aflatoxin B1 aldehyde reductase member 2 (human)
# [2] = test system: Ras-related C3 botulinum toxin substrate 1 (human)
# GABARAPL1 [3] = target: GABARAPL1 (UniProt Q9H0R8)
# GABARAPL1 [4] = target: GABARAPL1 (UniProt Q9H0R8); remark: listed apart in the source
sequence,measurement,setting,value
GGGAGGCTGAGGCAGG [G4-1 biotinylated (PQS2)],binding signal,[1],-0.295 z-score
same,binding signal,[2],-0.273 z-score
GGTGACAGGGGTATGGGGAGGGG [G4-2 biotinylated (Ct1)],binding signal,GABARAPL1 [3],3.77 z-score
GGGGACAGGGGTATGGGGAGGGG [G4-3 biotinylated (CtG)],binding signal,GABARAPL1 [4],4.68 z-score
